Experimental data taken from PubChem BioAssay AID602313 (National Center for Advancing Translational Sciences (NCATS), 2012).
Among all 390,000 compounds or so, about 760 (0.19%) were called active. Inconclusive results, whose numbers are uncertain, are shown with a selection of clear calls. Calls come from the whole dose curve; as a rule, active = well fitted inhibition curve with a large enough effect; inconclusive = small, poorly fitted or top-dose-only effect; inactive = flat fitted curve, though single readings scatter. Where the call is inconclusive, the potency comes from a doubtful curve fit.

experiment: qHTS for Inhibitors of Vif-A3F Interactions: qHTS; conditions: HeLa A3F-eYFP + Vif (tagged APOBEC3F with the HIV-1 protein that degrades it), YFP fluorescence increase; series mostly up to 46.1 µM; note: nearly all actives have a fitted effect of over 65% in size
How it was run: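 Fluorescence increase (Ex 488/Em 500-530) after overnight compound treatment at 37 deg C flags inhibition of Vif-driven A3F-eYFP loss in stable HeLa A3F-eYFP/Vif cells seeded overnight beforehand.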
Potency is the fitted concentration of half-maximal effect.

| SMILES | Potency |
| --- | --- |
| CCCCN(CC)CCNC(=O)c1cc2c(=O)[nH]c3ccc(C)cc3c2s1 | inconclusive: 15.8 µM [inhibitor, single point] |
| CCOC(=O)Nc1ccc2c(c1)C(=NNC(N)=S)c1ccccc1-2 | inconclusive: 2.82 µM [inhibitor, partial curve, poor fit] |
| O=C(/C=C/c1ccccc1)NNC(=O)c1ccco1 | inconclusive: 6.31 µM [inhibitor, single point] |
| COc1ccc(Nc2nc3cc(Cl)c(Cl)cc3n3cnnc23)cc1Cl | inconclusive: 15.8 µM [inhibitor, single point] |
| CCN1CCN(CCCNC(=O)c2ccc3c(c2)NC(=O)/C(=C\c2cccc(C)c2)S3)CC1 | inconclusive: 6.31 µM [inhibitor, single point] |
| CCCCN1C(=O)/C(=C2/Sc3ccccc3N2C)S/C1=N\c1ncn[nH]1 | active: 22.4 µM |
| CCOC(=O)N1CCN(C(=O)CCN2C(=O)/C(=C\c3ccc(OC)c(OC)c3)SC2=S)CC1 | inconclusive: 20 µM [inhibitor, single point] |
| COc1cc(OC)c(NC(=O)c2cc3ccccc3cc2O)cc1Cl | inactive |
| Cc1ccc(NC(=O)c2cn3c4c(ccc(Cl)c4c2=O)OC(C)C3)c(C)c1 (centres undefined) | inconclusive: 35.5 µM [inhibitor, single point] |
| CC(C)(C)Cc1c(-c2ccc(F)cc2)nc2ccc(Cl)cn12 | inconclusive: 35.5 µM [inhibitor, single point] |
| CC(=O)Nc1ccc(OCc2cccc([N+](=O)[O-])c2)cc1 | inactive |
| CC1=C/C(=N\NC(=S)Nc2cccnc2)CC(C)(C)C1 | inconclusive: 0.562 µM [inhibitor, partial curve, poor fit] |
| CCCCn1c(N)c(N(CC)C(=O)c2cc(CC)c(C)s2)c(=O)[nH]c1=O | inconclusive: 35.5 µM [inhibitor, single point] |
| Cc1cccc(NC(=O)N2CC=C(c3c[nH]c4ccccc34)CC2)c1C | active: 11.2 µM |
| c1ccc2[nH]c(NN=C3CCCCCC3)nc2c1 | active: 22.4 µM |
| O=C(Cn1ncc2c3ccccc3n(Cc3cccc(Cl)c3)c2c1=O)NCC1CCCO1 (centres undefined) | inconclusive: 10 µM [inhibitor, single point] |
| COc1ccc(/C=N/NC(=O)c2cc3c(OC)ccc(OC)c3[nH]2)cc1O | inconclusive: 2.82 µM [inhibitor, single point] |
| CCc1ccc2occ(CC(=O)Nc3ccc(C)c(C)c3)c2c1 | inactive |
| Cc1ccc(-c2ccc(C(=O)NCc3ccc(Cl)cc3)o2)c2ccccc12 | inactive |
| CCOC(=O)N1CCN(Cc2nc(N)nc(Nc3ccc(Oc4ccccc4)cc3)n2)CC1 | inactive |
| CN(C)S(=O)(=O)N1CCN(C(=O)c2ccc3c(c2)OCO3)CC1 | inconclusive: 11.2 µM [inhibitor, partial curve, poor fit] |
| COc1ccc(OC)c(N(/C(N)=N/c2nc(C)cc(C)n2)S(=O)(=O)c2ccc(NC(C)=O)cc2)c1 | inactive |
| CCOC(=O)C1(CCCc2ccccc2)CCN(C(=O)[C@@H]2C[C@@H](C)NC(=S)N2)CC1 | inactive |

Reformatted: entries from further up
SMILES,Potency
CCN1CCN(CCCNC(=O)c2ccc3c(c2)NC(=O)/C(=C\c2cccc(C)c2)S3)CC1,"inconclusive: 6.31 µM [inhibitor, single point]"
CCCCN1C(=O)/C(=C2/Sc3ccccc3N2C)S/C1=N\c1ncn[nH]1,active: 22.4 µM

The list goes on:

| SMILES | Potency |
| --- | --- |
| CCOc1ccc(OCC)c(NC(=O)c2cc(-c3cccs3)nc3ccccc23)c1 | inconclusive: 2.82 µM [inhibitor, single point] |
| c1ccc(CNc2nc(NCc3ccco3)nc(N3CCOCC3)n2)cc1 | inactive |
| COc1ccc(/C=C/C(=O)c2cc3cccc(OC)c3oc2=O)cc1 | inconclusive: 12.6 µM [inhibitor, single point] |
| CC(C=NNc1ccc([N+](=O)[O-])cn1)=Cc1ccccc1 | inconclusive: 11.2 µM [inhibitor, partial curve, poor fit] |
| Cc1snnc1C(=O)NC(=S)Nc1ccccc1 | inconclusive: 35.5 µM [inhibitor, single point] |
| COCCCNC(=S)N1CCN(S(=O)(=O)c2ccc(OC)cc2)CC1 | inactive |
| CCCCCCC(=O)N(O)C1CC(=O)N(c2ccc(C)cc2)C1=O (centres undefined) | inactive |
| Cc1ccc(O)c(C(=O)c2cc(C#N)c(=O)n(-c3nccs3)c2)c1 | inconclusive: 11.2 µM [inhibitor, partial curve, poor fit] |
| CCCCNCCOCCOc1ccccc1-c1ccccc1 | inconclusive: 25.1 µM [inhibitor, single point] |
| CC(C)c1cccc(C(C)C)c1NC(=S)Nc1cccc(Cl)c1 | inconclusive: 22.4 µM [inhibitor, partial curve, poor fit] |
| Cc1cccc(Cn2c(=O)n(Cc3ccccc3)c(=O)c3sc4ccccc4c32)c1 | inactive |
| O=C(Cc1ccc(Cl)cc1)Nc1ccc(-c2cc3ccccc3oc2=O)c(Cl)c1 | inactive |
| CC1CCN(C(=S)NC(=O)c2cccs2)CC1 | inactive |
| S=C(NCc1ccc(Cl)cc1Cl)Nc1ccccc1 | inconclusive: 22.4 µM [inhibitor, partial curve, poor fit] |
| O=C(O)Cc1csc2ccccc12 | inactive |
| CCc1nnc(NS(=O)(=O)c2ccc(NC(=O)c3cccc(Cl)c3)cc2)s1 | inactive |
| NC(=O)CC(NC(=O)Cc1cccc2ccccc12)c1ccc(NCc2ccc(F)cc2)c([N+](=O)[O-])c1 (centres undefined) | inconclusive: 31.6 µM [inhibitor, single point] |
| CCc1ccccc1N(CC)C(=O)Cn1nc(Cc2ccncc2)c2ccccc2c1=O | inactive |
| S=c1nc(-c2cccc(Cl)c2)[nH][nH]1 | inconclusive: 25.1 µM [inhibitor, single point] |
| CC(=O)c1sc(N/N=C\c2ccc(Br)cc2)nc1C | inconclusive: 35.5 µM [inhibitor, single point] |
| CC(C)(C)OC(=O)NC(Cc1ccccc1)C(=O)N1CCC(C(=O)NCC(=O)Nc2ccc(F)cc2)CC1 (centres undefined) | inconclusive: 10 µM [inhibitor, partial curve] |
| COc1cc([N+](=O)[O-])ccc1-c1ccc(/C=N/NC(N)=O)o1 | inconclusive: 10 µM [inhibitor, partial curve, poor fit] |
| CCC(C)c1ccc(C2C3=C(Nc4nc(N)[nH]c(=O)c42)c2ccccc2C3=O)cc1 (centres undefined) | inconclusive: 14.1 µM [inhibitor, single point] |

A run of entries taken from the entries so far:

| SMILES | Potency |
| --- | --- |
| Cc1ccc(O)c(C(=O)c2cc(C#N)c(=O)n(-c3nccs3)c2)c1 | inconclusive: 11.2 µM [inhibitor, partial curve, poor fit] |
| CCCCNCCOCCOc1ccccc1-c1ccccc1 | inconclusive: 25.1 µM [inhibitor, single point] |

The list continues:

| SMILES | Potency |
| --- | --- |
| COc1ccc2c(c1)CC(C(=O)NCCc1ccc(S(N)(=O)=O)cc1)CO2 (centres undefined) | inactive |
| O=C(Nc1ccc(Br)cn1)c1cccc(-c2cc3ccccc3oc2=O)c1 | inconclusive: 20 µM [inhibitor, single point] |
| CC1=CC(=C(C#N)c2nc3ccccc3s2)C=C(C)N1c1ccc(F)cc1 | inconclusive: 35.5 µM [inhibitor, single point] |
| O=C1c2sccc2-c2cccc3cccc1c23 | inconclusive: 35.5 µM [inhibitor, single point] |
| Cc1ccc(S(=O)(=O)N2CCOCC2)cc1C(=O)N1CCN(c2ncccn2)CC1 | inconclusive: 35.5 µM [inhibitor, single point] |
| CCc1ccc2oc(-c3ccc(NC(=O)c4cccc(Cl)c4Cl)cc3)nc2c1 | inconclusive: 31.6 µM [inhibitor, single point] |
| COc1ccc(N(CC(=O)NCCSc2ccccc2)S(=O)(=O)c2ccccc2)cc1OC | inconclusive: 35.5 µM [inhibitor, single point] |
| CCOc1ccc(CNC(=O)C2CCCN(c3nn4cc(-c5ccc(F)cc5)nc4s3)C2)cc1 (centres undefined) | inconclusive: 20 µM [inhibitor, single point] |
| CC(Oc1ccccc1)C(=O)Nc1nc(-c2ccccn2)cs1 (centres undefined) | inconclusive: 8.91 µM [inhibitor, partial curve, poor fit] |
| COc1ccc(Nc2nc(-c3cccs3)nc3ccccc23)cc1 | inactive |
| COc1ccc(/C=C2\C(=O)NC(=S)N2C(=O)c2ccc(C)cc2)cc1 | inconclusive: 22.4 µM [inhibitor, single point] |
| COc1cc(C(=O)OC2CSCC2NC(=O)c2ccccc2)cc(OC)c1OC (centres undefined) | inconclusive: 5.62 µM [inhibitor, single point] |
| COc1cccc(N=c2oc3ccc(OC)cc3cc2-c2nc3ccccc3[nH]2)c1 | inconclusive: 11.2 µM [inhibitor, partial curve, poor fit] |
| CCc1cccc(CC)c1NC(=O)Cn1nnc2sc3c(c2c1=O)CCCC3 | inactive |
| Cc1ccc(NC(=O)c2c(C)nn(-c3ccccc3)c2-n2cccc2)c(Cl)c1 | inactive |
| CC(C)(C)Cc1c(-c2ccc(Br)cc2)nc2ccc(Cl)cn12 | inconclusive: 28.2 µM [inhibitor, single point] |
| COc1ccc(Cl)cc1NC(=O)C1CCN(S(=O)(=O)c2ccc(F)cc2)CC1 | inactive |
| O=C(CSc1nc2ccccc2c(=O)n1CCCN1CCOCC1)Nc1cccc(S(=O)(=O)N2CCCCCC2)c1 | inconclusive: 22.4 µM [inhibitor, single point] |
| O=c1c2c([N+](=O)[O-])cc([N+](=O)[O-])cc2nc2ccccn12 | inactive |
| COc1ccc(OC)c(NC(=O)Cn2c(=O)n(-c3ccc(Cl)cc3)c(=O)c3c(C)c(C)sc32)c1 | inconclusive: 7.08 µM [inhibitor, partial curve] |
| COc1cc(/C=C2/SC(=S)N(CC3CCCO3)C2=O)ccc1O (centres undefined) | active: 31.6 µM |
| COc1ccc(/C=C2/SC(=S)N(CCC(=O)N3CCN(C)CC3)C2=O)cc1 | inconclusive: 1.78 µM [inhibitor, partial curve, poor fit] |
| Cc1cccc(Nc2nc3c(S(=O)(=O)c4ccc(Br)cc4)nnn3c3ccsc23)c1C | inactive |

3 entries already listed, sorted by formula weight, low to high:

| SMILES | Potency |
| --- | --- |
| O=c1c2c([N+](=O)[O-])cc([N+](=O)[O-])cc2nc2ccccn12 | inactive |
| Cc1ccc(NC(=O)c2c(C)nn(-c3ccccc3)c2-n2cccc2)c(Cl)c1 | inactive |
| COc1ccc(OC)c(NC(=O)Cn2c(=O)n(-c3ccc(Cl)cc3)c(=O)c3c(C)c(C)sc32)c1 | inconclusive: 7.08 µM [inhibitor, partial curve] |
